Reference: patent publication US20160304622A1
No constants are given. Whether binding was seen depends on the method and setting. Some entries that bind do so weakly or less than the wild type. For some assays here: Where a sequence is shown, tags or fusion partners need not be part of it.

B1: human anti-ADAMTS antibody (IgG1; clone 237-53) (antibody, V domains shown)
VH: QVQLVQSGAEVKKPGSSVKVSCKASGGTFSSFAISWVRQAPGQGLEWMGGIFPIFGQANYAQKFQGRVTITADESTSTAYMELSSLRSEDTAVYYCARFSDWWEWQMDYWGQGTLVTVSS
VL: DIVMTQSPDSLAVSLGERATINCRSSQSILYSSNNNYLAWYQQKPGQPPKLLIHTASARESGVPDRFSGSGSGTDFTLTISSLQAEDVAVYYCQQYYSVSITFGQGTKVEIKR
B2: Fab of clone 237-53 (Fab, V domains shown)
VH: B1 VH
VL: B1 VL

Assays:
[1] = molecular target: T1, recombinant FLAG/DHFR-tagged disintegrin and thrombospondin domains (Dis/TSP) of ADAMTS4 (human) (UniProt O75173); assay: immunoblotting of FLAG/DHFR-tagged domain proteins, antibody 2 µg/ml
T1 sequence: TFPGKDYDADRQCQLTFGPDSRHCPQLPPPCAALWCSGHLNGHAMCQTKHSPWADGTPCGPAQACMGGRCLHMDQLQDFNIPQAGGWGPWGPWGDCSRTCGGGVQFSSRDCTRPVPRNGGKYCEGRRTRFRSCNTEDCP

[2] = molecular target: T2, Recombinant ADAMTS4 (R&D Systems Inc.) (Homo sapiens (Human)) (UniProt O75173); assay: ELISA of Fab extracts on the antigen
T2 sequence: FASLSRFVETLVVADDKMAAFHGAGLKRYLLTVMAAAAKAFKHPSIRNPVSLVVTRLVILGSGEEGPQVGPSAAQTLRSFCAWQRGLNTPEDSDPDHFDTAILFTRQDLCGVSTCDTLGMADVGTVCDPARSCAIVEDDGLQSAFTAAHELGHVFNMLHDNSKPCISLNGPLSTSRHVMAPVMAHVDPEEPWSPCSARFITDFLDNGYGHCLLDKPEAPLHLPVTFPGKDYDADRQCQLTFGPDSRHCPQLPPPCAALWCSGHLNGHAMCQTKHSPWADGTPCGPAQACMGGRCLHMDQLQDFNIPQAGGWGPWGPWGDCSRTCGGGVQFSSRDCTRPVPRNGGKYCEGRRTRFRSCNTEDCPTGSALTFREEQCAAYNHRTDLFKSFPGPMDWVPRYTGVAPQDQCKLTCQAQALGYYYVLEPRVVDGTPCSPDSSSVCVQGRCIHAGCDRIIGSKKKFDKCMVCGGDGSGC

Binder | binding [1] | binding [2]
B1 | binds | –
B2 | – | binds
